In PubChem BioAssay AID1671190 (National Center for Advancing Translational Sciences (NCATS), 2021):
In all, about 580,000 compounds went through this assay and about 6,100 (1.1%) were called active. Inconclusive means that the source gave no clear call. Such entries were picked first, then a sample of the others. Calls come from the whole dose curve; as a rule, active = well fitted inhibition curve with a large enough effect; inconclusive = small, poorly fitted or top-dose-only effect, or another doubt; inactive = no such curve, though single readings can be large or run the other way. A potency beside an inconclusive call is a rough fit, not a confirmed value.

Sequences of proteins named here, by UniProt entry; tags and fusion partners are left off. A change or cut given only in a name is not applied to a line headed by its entry.
UniProt P18054: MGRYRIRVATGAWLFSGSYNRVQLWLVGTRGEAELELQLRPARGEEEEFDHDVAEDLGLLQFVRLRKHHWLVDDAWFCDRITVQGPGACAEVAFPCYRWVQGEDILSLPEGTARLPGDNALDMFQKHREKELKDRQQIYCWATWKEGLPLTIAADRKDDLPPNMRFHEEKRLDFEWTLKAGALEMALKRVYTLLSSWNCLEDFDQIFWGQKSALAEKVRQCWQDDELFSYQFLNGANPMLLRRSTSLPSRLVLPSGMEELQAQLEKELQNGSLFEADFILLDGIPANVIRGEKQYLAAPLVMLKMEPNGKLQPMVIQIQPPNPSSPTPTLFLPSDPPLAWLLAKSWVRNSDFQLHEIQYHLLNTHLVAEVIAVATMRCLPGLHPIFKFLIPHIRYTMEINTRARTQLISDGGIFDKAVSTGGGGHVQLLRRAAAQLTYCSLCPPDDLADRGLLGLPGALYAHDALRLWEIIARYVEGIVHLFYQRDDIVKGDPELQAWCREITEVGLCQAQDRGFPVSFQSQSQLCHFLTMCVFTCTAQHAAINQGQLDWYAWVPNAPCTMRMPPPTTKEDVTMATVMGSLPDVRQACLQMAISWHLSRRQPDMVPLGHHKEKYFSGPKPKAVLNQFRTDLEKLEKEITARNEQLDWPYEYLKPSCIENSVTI

molecular target: Polyunsaturated fatty acid lipoxygenase ALOX12 (Homo sapiens) (UniProt P18054); assay: Primary qHTS assay for inhibitors of human arachidonate 12S-lipoxygenase (ALOX12): Round 2; conditions: purified 12hLO, xylenol orange hydroperoxide absorbance; series mostly up to 108 µM
In short: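 Hydroperoxide product was detected by ferrous iron/xylenol orange as the 573 to 405 nm absorbance ratio. Arachidonic acid at 40 uM (final) was turned over for 30 min at room temperature by 150 nM human 12hLO, pH 7.0 Hepes buffer, after 15 min compound preincubation.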
Potency is the fitted concentration of half-maximal effect.

| Compound | Potency |
| --- | --- |
| O=C(NCC(=O)N1CCN(c2ncccn2)CC1)c1ccccc1F | inconclusive: 50.1 µM [inhibitor, partial curve, poor fit] |
| O=C(/C=C/c1ccccc1)OCCc1ccccc1 | inactive |
| O=C(c1cc(-c2ccco2)nn1-c1cccc(Cl)c1)N1CCCCC1 | inconclusive: 39.8 µM [inhibitor, partial curve, poor fit] |
| Cc1nc2ccccc2c(=O)n1NC(=O)c1cc(Br)ccc1Cl | inconclusive: 0.355 µM [inhibitor, full curve] |
| O=C(Nc1ccc2c(c1)OCCO2)c1cc2cc(Br)ccc2[nH]1 | active: 14.1 µM |
| COc1ccc(-n2cnc3cc(C(=O)N4CCCCC4)ccc3c2=O)cc1Cl | inconclusive: 89.1 µM [inhibitor, single point] |
| CCCCOc1ccc(NC(=O)Cc2ccc(OC)cc2)c2cccnc12 | inconclusive: 79.4 µM [inhibitor, single point] |
| O=C1CSc2ccc(C(=O)Nc3ccccc3O)cc2N1 | inconclusive: 14.1 µM [inhibitor, partial curve] |
| Cc1ccc(C(=O)Oc2csc(=S)n2C(=O)c2ccc(C)cc2)cc1 | inconclusive: 4.47 µM [inhibitor, full curve, poor fit] |
| COc1ccc(NC(=O)c2ccco2)cc1NC(=O)COc1ccccc1[N+](=O)[O-] | inactive |
| COc1cccc(CN2Cc3nc(-c4ccccc4)ccc3OCC2=O)c1 | inconclusive: 50.1 µM [inhibitor, full curve, poor fit] |
| O=C(O)CCS(=O)(=O)CCC(=O)O | inconclusive: 39.8 µM [inhibitor, partial curve, poor fit] |
| CCc1cc(C(=O)N=Nc2c(O)[nH]c3ccc([N+](=O)[O-])cc23)c2ccccc2n1 | inactive |
| Cc1ccc(S(=O)(=O)N2CCN(C3CC(=O)N(c4ccc(F)cc4)C3=O)CC2)cc1C (stereo unspecified) | inconclusive: 89.1 µM [inhibitor, single point] |
| Cc1ccc(NC2=NCC(=O)N2C2CCCC2)c(C)c1 | inconclusive: 17.8 µM [inhibitor, partial curve, poor fit] |
| O=C(CN1C(=O)COc2ccc(S(=O)(=O)NC3CCCC3)cc21)NCc1ccc(Cl)cc1 | inconclusive: 112 µM [inhibitor, partial curve, poor fit] |
| N#CC1=C(N)N2CCc3cc4c(cc3C2=CC12C(=O)Nc1cc3c(cc12)OCCO3)OCO4 (stereo unspecified) | inconclusive: 44.7 µM [inhibitor, partial curve, poor fit] |
| S=C(Nc1ccccc1)N1CCCCCC1 | inactive |
| Cn1c(=O)[nH]c(=O)c2c1nc(NCc1ccccc1Cl)n2CCCc1ccccc1 | inconclusive: 50.1 µM [inhibitor, partial curve, poor fit] |
| CCOc1ccccc1NC(=O)c1cc(-c2ccco2)nc2ccccc12 | active: 11.2 µM |
| CCOC(=O)/C(C#N)=C1/SC(CC)C(=O)N1c1ccc(C)cc1 (stereo unspecified) | inconclusive: 8.91 µM [inhibitor, partial curve, poor fit] |
| C=CCN(C)C(=O)C[C@@H]1c2nc(NC(=O)c3ccc(OC)cc3)sc2C[C@@H]2[C@](C)(CO)[C@H](O)CC[C@]21C | inconclusive: 44.7 µM [inhibitor, partial curve] |

A different layout for part of the listing above:
Compound	Potency
O=C(NCC(=O)N1CCN(c2ncccn2)CC1)c1ccccc1F	inconclusive: 50.1 µM [inhibitor, partial curve, poor fit]
Cc1nc2ccccc2c(=O)n1NC(=O)c1cc(Br)ccc1Cl	inconclusive: 0.355 µM [inhibitor, full curve]
O=C(Nc1ccc2c(c1)OCCO2)c1cc2cc(Br)ccc2[nH]1	active: 14.1 µM
COc1ccc(-n2cnc3cc(C(=O)N4CCCCC4)ccc3c2=O)cc1Cl	inconclusive: 89.1 µM [inhibitor, single point]
CCCCOc1ccc(NC(=O)Cc2ccc(OC)cc2)c2cccnc12	inconclusive: 79.4 µM [inhibitor, single point]
Cc1ccc(C(=O)Oc2csc(=S)n2C(=O)c2ccc(C)cc2)cc1	inconclusive: 4.47 µM [inhibitor, full curve, poor fit]
COc1ccc(NC(=O)c2ccco2)cc1NC(=O)COc1ccccc1[N+](=O)[O-]	inactive
O=C(O)CCS(=O)(=O)CCC(=O)O	inconclusive: 39.8 µM [inhibitor, partial curve, poor fit]
CCc1cc(C(=O)N=Nc2c(O)[nH]c3ccc([N+](=O)[O-])cc23)c2ccccc2n1	inactive
Cc1ccc(S(=O)(=O)N2CCN(C3CC(=O)N(c4ccc(F)cc4)C3=O)CC2)cc1C (stereo unspecified)	inconclusive: 89.1 µM [inhibitor, single point]
O=C(CN1C(=O)COc2ccc(S(=O)(=O)NC3CCCC3)cc21)NCc1ccc(Cl)cc1	inconclusive: 112 µM [inhibitor, partial curve, poor fit]
N#CC1=C(N)N2CCc3cc4c(cc3C2=CC12C(=O)Nc1cc3c(cc12)OCCO3)OCO4 (stereo unspecified)	inconclusive: 44.7 µM [inhibitor, partial curve, poor fit]
CCOc1ccccc1NC(=O)c1cc(-c2ccco2)nc2ccccc12	active: 11.2 µM
CCOC(=O)/C(C#N)=C1/SC(CC)C(=O)N1c1ccc(C)cc1 (stereo unspecified)	inconclusive: 8.91 µM [inhibitor, partial curve, poor fit]
C=CCN(C)C(=O)C[C@@H]1c2nc(NC(=O)c3ccc(OC)cc3)sc2C[C@@H]2[C@](C)(CO)[C@H](O)CC[C@]21C	inconclusive: 44.7 µM [inhibitor, partial curve]

More records.

| Compound | Potency |
| --- | --- |
| Cc1nc2c(c(-c3ccc(Cl)cc3)n1)CN(C(=O)c1ccc(C(F)(F)F)cc1)CC2 | inconclusive: 22.4 µM [inhibitor, partial curve] |
| c1cncc(-c2nc(NCc3cccs3)c3ccccc3n2)c1 | inactive |
| CC(C)C[C@@H](COCc1ccc(C(F)(F)F)cc1)N1CCN(C(=O)c2ccc(C(F)(F)F)cc2)CCC1=O | inconclusive: 50.1 µM [inhibitor, partial curve, poor fit] |
| C=CCN1C(=O)/C(=C/c2ccc(O)cc2)S/C1=N/c1nccs1 | inconclusive: 35.5 µM [inhibitor, partial curve, poor fit] |
| Cc1[nH]c2ccccc2c1C | inconclusive: 79.4 µM [inhibitor, single point] |
| CC1CCCCC1NCC#CCOc1ccc(Cl)cc1 (stereo unspecified) | inactive |
| COc1ccc(OC)c2sc(N3CCN(C(=O)c4ccco4)CC3)nc12 | inconclusive: 0.398 µM [inhibitor, full curve, poor fit] |
| CCOC(=O)N1CCN([N+]([O-])=NOc2ccc([N+](=O)[O-])cc2[N+](=O)[O-])CC1 | inconclusive: 12.2 µM [inhibitor, single point] |
| CCN1CCC(N(Cc2ccc3c(c2)OCO3)C(=O)Nc2cc(F)ccc2F)CC1 | inactive |
| COc1cc(CCN(C(=O)c2cc3ccccc3[nH]2)C(C)c2nc3ccccc3[nH]2)cc(OC)c1 (stereo unspecified) | inconclusive: 44.7 µM [inhibitor, partial curve, poor fit] |
| O=[N+]([O-])c1ccc2nc(-c3ccc(Cl)cc3)n(OCc3ccccc3)c2c1 | inconclusive: 28.2 µM [inhibitor, partial curve, poor fit] |
| CC(C)c1ccc2sc3ccccc3c(=O)c2c1 | inconclusive: 50.1 µM [inhibitor, partial curve, poor fit] |
| CCCCCc1ccc(-c2ccc(-c3ccc(C#N)cc3)cc2)nc1 | inactive |
| OC(CN1CCN(c2ccccn2)CC1)Cn1c2ccccc2c2ccccc21 (stereo unspecified) | inconclusive: 89.1 µM [inhibitor, partial curve, poor fit] |
| O=C(Nc1cc(Cl)cc(Cl)c1)N[C@@H]1CC[C@@H](CCNS(=O)(=O)c2cccc(F)c2)O[C@@H]1CO | inconclusive: 44.7 µM [inhibitor, partial curve, poor fit] |
| COc1ccc(-c2cc(-c3nc(-c4ccccc4)no3)[nH]n2)c(OC)c1 | inactive |
| O=C(/C=C/c1ccccc1)/C=C/c1ccc(-c2ccccc2)cc1 | inconclusive: 3.98 µM [inhibitor, full curve, poor fit] |
| N#Cc1ccccc1COC(=O)c1ccc(COc2ccccc2)o1 | inactive |
| CN(CCc1ccccc1)C1CCCN(S(=O)(=O)N(C)C)C1 (stereo unspecified) | inconclusive: 17.8 µM [inhibitor, full curve, poor fit] |
| Cc1[nH]c2ccccc2c1C(=O)N1CCN(S(=O)(=O)c2ccc(F)cc2F)CC1 | inconclusive: 28.2 µM [inhibitor, single point] |
| OC(CN1CCOCC1)Cn1c2c(c3ccccc31)CCCC2 (stereo unspecified) | inconclusive: 28.2 µM [inhibitor, partial curve, poor fit] |
| O=C(Nc1cccc(Cl)c1)N1CCN(c2cc(=O)n3nc(-c4ccco4)sc3n2)CC1 | inconclusive: 158 µM [inhibitor, partial curve, poor fit] |

| Compound | Potency |
| --- | --- |
| CC(C)C(=O)Nc1ccc(NC(=O)c2cccc(F)c2)cn1 | inconclusive: 7.94 µM [inhibitor, full curve, poor fit] |
| COc1ccccc1OCC(=O)Nc1ccc(-c2nc3ccccc3o2)cc1 | inconclusive: 44.7 µM [inhibitor, single point] |
| COc1ccc(OC)c(S(=O)(=O)N2CCN(C(=O)C3=Cc4cc(Cl)ccc4OC3)CC2)c1 | inconclusive: 5.01 µM [inhibitor, full curve, poor fit] |
| Cc1ccc(-n2ncc3c(NC4CCCCCC4)ncnc32)cc1 | inconclusive: 141 µM [inhibitor, partial curve, poor fit] |
| Cc1cccc(=O)n1CCC(=O)N1CCn2nc(C(O)C3CC3)cc2C1 (stereo unspecified) | inactive |
| Cc1c(-c2ccccc2)n[nH]c1C(=O)NN | inactive |
| CC(C(=O)NC1C(=O)N2C(C(=O)O)=C(CSc3nnnn3C)CSC12)n1cc(Cl)cn1 (stereo unspecified) | inactive |
| COc1ccc(C(=O)NCCn2cc(SCc3c(F)cccc3Cl)c3ccccc32)cc1 | inconclusive: 22.4 µM [inhibitor, partial curve, poor fit] |
| O=C(O)CCSc1nc2ccccc2n1-c1ccccc1 | inactive |
| COC(=O)c1ccc2c(c1)nc1n2[C@@H](CNC(C)=O)COC1 | inactive |
| FC(F)(F)c1cccc(N2CCN(C3CC4CCC3C4)CC2)c1 (stereo unspecified) | inconclusive: 100 µM [inhibitor, single point] |
| COCCCNc1nc2c(S(=O)(=O)c3ccc(C)c(C)c3)nnn2c2ccccc12 | inconclusive: 3.16 µM [inhibitor, full curve, poor fit] |
| Cc1ccc(S(=O)(=O)N2CCCN(C(=O)c3cc4ccccc4[nH]3)CC2)cc1 | inconclusive: 56.2 µM [inhibitor, partial curve, poor fit] |
| Cc1ccc(OCC(=O)NNC(=O)C2CCN(c3ncnc4sc(C)c(C)c34)CC2)cc1 | inactive |
| Cc1cc(C)c(-c2n[nH]c3c2C(c2ccccc2F)N(Cc2ccco2)C3=O)c(O)c1 (stereo unspecified) | inactive |
| CC1CCCc2sc3nc(SCC(=O)c4ccc(Cl)cc4)nc(N)c3c21 (stereo unspecified) | inconclusive: 28.2 µM [inhibitor, full curve, poor fit] |
| COc1cc(C)c(N)cc1C(C)C | inconclusive: 1.26 µM [inhibitor, full curve] |
| Cc1oc2cc(OC(=O)C3CC3)ccc2c(=O)c1-c1ccc(Cl)cc1 | inactive |
| CC1CCc2sc(C(=O)N/N=C3/CCCCc4ccccc43)cc2C1 (stereo unspecified) | active: 1.26 µM |
| Cc1c(NC(=O)C2CC=CCC2C(=O)O)c(=O)n(-c2ccccc2)n1C (stereo unspecified) | inactive |
| S=C(NCCc1ccccc1)Nc1ccccn1 | active: 22.4 µM |
| CCCCCC(=O)Nc1cccc(C2=NOC3(C2)C[C@H](C(N)=O)N(C(=O)CCCCC)C3)c1 (stereo partly specified) | inconclusive: 79.4 µM [inhibitor, partial curve, poor fit] |
